From patent publication US20020064828A1 come the findings set out here.

This experiment has as its target full-length human presenilin 2 (PS2) expressed in HeLa cells (human) (UniProt P49810). Description: coimmunoprecipitation with rabbit anti-PS2, 3H-myristic acid fluorography.

Results are given in words; binding and its absence hold for the method and conditions named. Binding seen in cells or lysates may run through a third protein. Some results given as binding are weak or reduced against the parent protein; the word gives no strength. Sequences can lack the tags named with a protein.

B1: C-myc calmyrin (calmyrin with in-frame COOH-terminal myc epitope) (protein, not shown: small tags and cut ends)
chain: GGSGSRLSKELLAEYQDLTFLTKQEILLAHRRFCELLPQEQRTVESSLRAQVPFEQILSLPELKANPFKERICRVFSTSPAKDSLSFEDFLDLLSVFSDTATPDIKSHYAFRIFDFDDDGTLNREDLSRLVNCLTGEGEDTRLSASEMKQLIDNILEESDIDRDGTINLSEFQHVISRSPDFASSFKIVL
modifications: myristoylated (3H-myristic acid label)
On to B1, for which the binding result is “binds”.
